Measured values from article PMC3155514.

Sequences of proteins named here, by UniProt entry; tags and fusion partners are left off.
UniProt Q06609, whole entry F129V: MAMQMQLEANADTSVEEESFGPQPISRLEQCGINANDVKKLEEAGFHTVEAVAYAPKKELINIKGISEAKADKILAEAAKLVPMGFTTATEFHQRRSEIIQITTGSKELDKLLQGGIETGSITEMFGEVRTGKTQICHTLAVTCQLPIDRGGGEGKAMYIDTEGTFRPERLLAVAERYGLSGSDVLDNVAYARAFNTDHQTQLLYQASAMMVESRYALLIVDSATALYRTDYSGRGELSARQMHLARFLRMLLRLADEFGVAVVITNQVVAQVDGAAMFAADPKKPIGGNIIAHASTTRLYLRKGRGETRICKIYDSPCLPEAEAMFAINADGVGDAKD
UniProt Q06609, whole entry H294V: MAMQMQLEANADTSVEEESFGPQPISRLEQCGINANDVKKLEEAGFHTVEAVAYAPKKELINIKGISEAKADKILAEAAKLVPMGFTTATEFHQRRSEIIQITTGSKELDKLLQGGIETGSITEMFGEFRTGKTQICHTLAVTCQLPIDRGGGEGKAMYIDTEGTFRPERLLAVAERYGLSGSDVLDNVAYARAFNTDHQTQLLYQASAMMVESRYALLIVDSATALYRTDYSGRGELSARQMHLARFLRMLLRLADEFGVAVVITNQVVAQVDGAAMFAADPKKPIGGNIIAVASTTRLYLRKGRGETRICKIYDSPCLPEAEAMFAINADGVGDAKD

Columns and labels:
[1] = target: HsRAD51(F129V) (Homo sapiens) (UniProt Q06609); experiment: SPR; conditions: SPR (Biacore 3000): 20 mM HEPES pH 7.5, 10% glycerol, 1 mM DTT, 1 mM MgCl2, 0.005% P-20, 2.5 mM indicated nucleotide, recombinant protein; for Kd: ATP (2.5 mM); for binding result: no nucleotide, Kd NA
[2] = target: HsRAD51(H294V) (Homo sapiens) (UniProt Q06609); experiment: SPR; conditions: ATP (2.5 mM), text: largely defective in binding despite the Kd; SPR (Biacore 3000): 20 mM HEPES pH 7.5, 10% glycerol, 1 mM DTT, 1 mM MgCl2, 0.005% P-20, 2.5 mM indicated nucleotide; recombinant protein; label: 5' biotin; single-stranded DNA

Sequence	Kd ([1]; text: only wild type bound dsDNA, label: 5' biotin on strand 1) [nM]	binding result ([1]; label: 5' biotin on strand 1)	Kd ([1]; text: largely defective in binding despite the Kd, label: 5' biotin, single-stranded DNA) [nM]	binding result ([1]; label: 5' biotin, single-stranded DNA)	Kd [2] [nM]
TCGAGAGGGTAAACCACAATTATTGATATAAAATAGTTTTGGGTAGGCGA (double strand) [50 bp dsDNA]	508	no binding			
TTTTTTTTTTTTTTTTTTTTTTTTTTTTTTTTTTTTTTTTTTTTTTTTTT [dT50]			60	no binding	47

Construct, isoform or probe ends are uncertain for at least one entry. For some assays here: Negatives hold for the conditions tested.
